Reference: the supplement of paper PMC8728848
This is one part of the list.

How the values were obtained:
Assay in all cases: glycan array binding signal (z-score within array); higher = stronger binding
Conditions in all cases: glycan notation: IUPAC condensed, linker removed
Gal6S(b1-4)Glc = target: Gal6S(b1-4)Glc
How it was run: (§1)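 Glycan array data came from 3228 arrays in the Consortium for Functional Glycomics database, and only arrays with an available protein sequence were kept. Glycan names were put into IUPAC-condensed notation, and columns mapping to the same glycan were averaged. The binding signal is a within-array Z-score, averaged across arrays of one protein sequence run at different concentrations or buffers and across linkers. A negative Z-score can be read as non-binding.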

Gal6S(b1-4)Glc6S = target: Gal6S(b1-4)Glc6S
How it was run: as §1

Gal6S(b1-4)GlcNAc = target: Gal6S(b1-4)GlcNAc
How it was run: as §1

Gal6S(b1-4)GlcNAc6S = target: Gal6S(b1-4)GlcNAc6S
How it was run: as §1

GalNAc(a1-3)Gal = target: GalNAc(a1-3)Gal
How it was run: as §1

GalNAc(a1-3)GalNAc = target: GalNAc(a1-3)GalNAc
How it was run: as §1

[1] = target: GalNAc(a1-3)GalNAc(b1-3)Gal(a1-4)Gal(b1-4)Glc
How it was run: as §1

[2] = target: GalNAc(a1-3)GalNAc(b1-3)Gal(a1-4)Gal(b1-4)GlcNAc
How it was run: as §1

GalNAc(b1-3)Gal = target: GalNAc(b1-3)Gal
How it was run: as §1

[3] = target: GalNAc(b1-3)Gal(a1-4)Gal(b1-4)GlcNAc
How it was run: as §1

[4] = target: GalNAc(b1-3)Gal(a1-4)Gal(b1-4)GlcNAc(b1-3)Gal(b1-4)Glc
How it was run: as §1

[5] = target: GalNAc(b1-3)Gal(a1-6)Gal(b1-4)Glc
How it was run: as §1

GalNAc(b1-3)GalNAc = target: GalNAc(b1-3)GalNAc
How it was run: as §1

GalNAc(b1-3)GlcNAc = target: GalNAc(b1-3)GlcNAc
How it was run: as §1

GalNAc(b1-4)Gal(b1-4)Glc = target: GalNAc(b1-4)Gal(b1-4)Glc
How it was run: as §1

GalNAc(b1-4)GlcNAc = target: GalNAc(b1-4)GlcNAc
How it was run: as §1

[6] = target: GalNAc(b1-4)GlcNAc(b1-2)Man
How it was run: as §1

[7] = target: GalNAc(b1-4)GlcNAc(b1-2)Man(a1-3)[GalNAc(b1-4)GlcNAc(b1-2)Man(a1-6)]Man(b1-4)GlcNAc(b1-4)GlcNAc
How it was run: as §1

[8] = target: GalNAc(b1-4)GlcNAc(b1-3)GalNAc(b1-4)GlcNAc
How it was run: as §1

GalNAc(b1-4)GlcNAc6S = target: GalNAc(b1-4)GlcNAc6S
How it was run: as §1

GalNAc(b1-6)GalNAc = target: GalNAc(b1-6)GalNAc
How it was run: as §1

GalNAc3S(b1-4)GlcNAc = target: GalNAc3S(b1-4)GlcNAc
How it was run: as §1

GalNAc3S(b1-4)GlcNAc3S = target: GalNAc3S(b1-4)GlcNAc3S
How it was run: as §1

[9] = target: GalNAc3S(b1-4)[Fuc(a1-3)]GlcNAc
How it was run: as §1

GalNAc4S6S(b1-4)GlcNAc = target: GalNAc4S6S(b1-4)GlcNAc
How it was run: as §1

GalNAc6S(b1-4)GlcNAc = target: GalNAc6S(b1-4)GlcNAc
How it was run: as §1

Glc(a1-4)Glc = target: Glc(a1-4)Glc
How it was run: as §1

[10] = target: Glc(a1-4)Glc(a1-4)Glc(a1-4)Glc
How it was run: as §1

Glc(a1-6)Glc(a1-6)Glc = target: Glc(a1-6)Glc(a1-6)Glc
How it was run: as §1

[11] = target: Glc(a1-6)Glc(a1-6)Glc(a1-6)Glc
How it was run: as §1

Glc(b1-4)Glc = target: Glc(b1-4)Glc
How it was run: as §1

Glc(b1-6)Glc = target: Glc(b1-6)Glc
How it was run: as §1

GlcA(b1-3)Gal = target: GlcA(b1-3)Gal
How it was run: as §1

GlcA(b1-3)GlcNAc = target: GlcA(b1-3)GlcNAc
How it was run: as §1

GlcA(b1-6)Gal = target: GlcA(b1-6)Gal
How it was run: as §1

[12] = target: GlcA3S(b1-3)Gal(b1-4)GlcNAc(b1-2)Man
How it was run: as §1

[13] = target: GlcA3S(b1-3)Gal(b1-4)GlcNAc(b1-3)Gal(b1-4)Glc
How it was run: as §1

B1: Erv46-EDTA (Saccharomyces cerevisiae), P39727 (protein)
chain: MKFLVNVALVFMVVYISYIYAAAPEHHHHHHDYDIPTTENLYFQGAMDSVVTRPQLVVDRDRHAKLELNMDVTFPSMPCDLVNLDIMDDSGEMQLDILDAGFTMSRLNSEGRPVGDATELHVGGNGDGTAPVNNDPNYCGPCYGAKDQSQNENLAQEEKVCCQDCDAVRSAYLEAGWAFFDGKNIEQCEREGYVSKINEHLNEGCRIKGSAQINRIQGNLHFAPGKPYQNAYGHFHDTSLYDKTSNLNFNHIINHLSFGKPIQSHSKLLGNDKRHGGAVVATSPLDGRQVFPDRNTHFHQFSYFAKIVPTRYEYLDNVVIETAQFSATFHSRPLAGGRDKDHPNTLHVRGGIPGMFVFFEMSPLKVINKEQ
glycan array binding signal (z-score) (Gal6S(b1-4)Glc): 0.14 | glycan array binding signal (z-score) (Gal6S(b1-4)Glc6S): -0.774 | glycan array binding signal (z-score) (Gal6S(b1-4)GlcNAc): 1.19 | glycan array binding signal (z-score) (Gal6S(b1-4)GlcNAc6S): -0.685 | glycan array binding signal (z-score) (GalNAc(a1-3)Gal): -1.24 | glycan array binding signal (z-score) (GalNAc(a1-3)GalNAc): -0.107 | glycan array binding signal (z-score) [1]: -0.326 | glycan array binding signal (z-score) [2]: -0.623 | glycan array binding signal (z-score) (GalNAc(b1-3)Gal): -0.834 | glycan array binding signal (z-score) [3]: 0.221 | glycan array binding signal (z-score) [4]: -0.404 | glycan array binding signal (z-score) [5]: 0.442 | glycan array binding signal (z-score) (GalNAc(b1-3)GalNAc): -0.335 | glycan array binding signal (z-score) (GalNAc(b1-3)GlcNAc): -0.295 | glycan array binding signal (z-score) (GalNAc(b1-4)Gal(b1-4)Glc): -0.674 | glycan array binding signal (z-score) (GalNAc(b1-4)GlcNAc): 0.697 | glycan array binding signal (z-score) [6]: 0.086 | glycan array binding signal (z-score) [7]: 1 | glycan array binding signal (z-score) [8]: -0.443 | glycan array binding signal (z-score) (GalNAc(b1-4)GlcNAc6S): -0.064 | glycan array binding signal (z-score) (GalNAc(b1-6)GalNAc): -0.213 | glycan array binding signal (z-score) (GalNAc3S(b1-4)GlcNAc): -0.724 | glycan array binding signal (z-score) (GalNAc3S(b1-4)GlcNAc3S): 0.434 | glycan array binding signal (z-score) [9]: -0.49 | glycan array binding signal (z-score) (GalNAc4S6S(b1-4)GlcNAc): -0.841 | glycan array binding signal (z-score) (GalNAc6S(b1-4)GlcNAc): -0.013 | glycan array binding signal (z-score) (Glc(a1-4)Glc): -0.133 | glycan array binding signal (z-score) [10]: -0.298 | glycan array binding signal (z-score) (Glc(a1-6)Glc(a1-6)Glc): 0.281 | glycan array binding signal (z-score) [11]: -0.452 | glycan array binding signal (z-score) (Glc(b1-4)Glc): 0.101 | glycan array binding signal (z-score) (Glc(b1-6)Glc): -0.619 | glycan array binding signal (z-score) (GlcA(b1-3)Gal): 0.464 | glycan array binding signal (z-score) (GlcA(b1-3)GlcNAc): 0.344 | glycan array binding signal (z-score) (GlcA(b1-6)Gal): 0.539 | glycan array binding signal (z-score) [12]: -0.462 | glycan array binding signal (z-score) [13]: -0.469
